The other results are listed elsewhere or left out.

By UniProt entry, the sequences of proteins in these tests, tags left out. Where a name states a change or a piece, a line headed by the entry shows the natural chain unless it says otherwise.
UniProt Q9H0E3: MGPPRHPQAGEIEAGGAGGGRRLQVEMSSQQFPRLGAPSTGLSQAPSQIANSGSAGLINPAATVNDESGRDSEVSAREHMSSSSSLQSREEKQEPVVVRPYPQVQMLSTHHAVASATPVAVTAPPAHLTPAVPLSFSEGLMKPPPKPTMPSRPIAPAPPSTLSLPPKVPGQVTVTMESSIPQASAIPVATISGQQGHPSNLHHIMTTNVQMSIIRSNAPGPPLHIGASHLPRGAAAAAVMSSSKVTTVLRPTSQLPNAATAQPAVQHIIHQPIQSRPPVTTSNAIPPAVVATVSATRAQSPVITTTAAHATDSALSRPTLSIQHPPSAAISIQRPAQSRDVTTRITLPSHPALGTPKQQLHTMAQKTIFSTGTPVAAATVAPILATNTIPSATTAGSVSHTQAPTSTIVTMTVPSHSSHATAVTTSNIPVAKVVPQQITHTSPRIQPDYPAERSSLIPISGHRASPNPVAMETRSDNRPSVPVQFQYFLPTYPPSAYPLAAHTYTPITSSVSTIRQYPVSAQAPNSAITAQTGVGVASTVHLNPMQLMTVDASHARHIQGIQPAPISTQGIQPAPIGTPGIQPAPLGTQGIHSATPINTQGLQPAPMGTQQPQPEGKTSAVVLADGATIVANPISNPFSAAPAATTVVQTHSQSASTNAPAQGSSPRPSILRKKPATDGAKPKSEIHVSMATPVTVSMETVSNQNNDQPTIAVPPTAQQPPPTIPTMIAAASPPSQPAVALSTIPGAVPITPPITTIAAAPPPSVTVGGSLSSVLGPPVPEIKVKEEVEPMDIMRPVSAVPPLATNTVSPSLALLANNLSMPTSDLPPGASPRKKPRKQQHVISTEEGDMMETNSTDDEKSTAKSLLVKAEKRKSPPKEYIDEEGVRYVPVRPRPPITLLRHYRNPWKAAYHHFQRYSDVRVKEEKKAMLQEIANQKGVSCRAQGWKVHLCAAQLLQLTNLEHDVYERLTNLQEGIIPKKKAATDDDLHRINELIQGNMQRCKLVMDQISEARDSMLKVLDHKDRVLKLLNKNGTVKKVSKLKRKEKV
UniProt Q96IW7: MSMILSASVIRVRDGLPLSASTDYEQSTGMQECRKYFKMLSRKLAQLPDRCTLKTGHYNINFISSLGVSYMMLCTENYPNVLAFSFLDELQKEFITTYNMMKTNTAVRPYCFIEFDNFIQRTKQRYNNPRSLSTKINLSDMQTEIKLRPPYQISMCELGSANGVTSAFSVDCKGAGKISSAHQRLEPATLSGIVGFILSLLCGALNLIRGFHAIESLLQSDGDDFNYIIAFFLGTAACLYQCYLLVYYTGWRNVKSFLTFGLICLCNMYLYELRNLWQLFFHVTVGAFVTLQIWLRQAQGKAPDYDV
UniProt Q99470: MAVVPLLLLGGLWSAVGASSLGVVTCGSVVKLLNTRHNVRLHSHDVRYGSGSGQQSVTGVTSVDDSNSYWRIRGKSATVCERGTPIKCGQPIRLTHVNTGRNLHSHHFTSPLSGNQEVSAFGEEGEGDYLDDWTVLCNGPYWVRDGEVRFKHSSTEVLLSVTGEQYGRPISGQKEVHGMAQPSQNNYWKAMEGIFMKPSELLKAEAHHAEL
UniProt O00560: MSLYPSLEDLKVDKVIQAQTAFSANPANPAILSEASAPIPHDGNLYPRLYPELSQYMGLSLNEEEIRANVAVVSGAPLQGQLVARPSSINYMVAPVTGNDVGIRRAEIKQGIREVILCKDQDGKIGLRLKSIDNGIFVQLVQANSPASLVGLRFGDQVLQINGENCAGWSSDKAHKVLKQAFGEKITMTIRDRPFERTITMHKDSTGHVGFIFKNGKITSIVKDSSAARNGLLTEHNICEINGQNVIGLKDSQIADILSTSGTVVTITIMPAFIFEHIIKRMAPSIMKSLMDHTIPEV
UniProt Q9NQC3: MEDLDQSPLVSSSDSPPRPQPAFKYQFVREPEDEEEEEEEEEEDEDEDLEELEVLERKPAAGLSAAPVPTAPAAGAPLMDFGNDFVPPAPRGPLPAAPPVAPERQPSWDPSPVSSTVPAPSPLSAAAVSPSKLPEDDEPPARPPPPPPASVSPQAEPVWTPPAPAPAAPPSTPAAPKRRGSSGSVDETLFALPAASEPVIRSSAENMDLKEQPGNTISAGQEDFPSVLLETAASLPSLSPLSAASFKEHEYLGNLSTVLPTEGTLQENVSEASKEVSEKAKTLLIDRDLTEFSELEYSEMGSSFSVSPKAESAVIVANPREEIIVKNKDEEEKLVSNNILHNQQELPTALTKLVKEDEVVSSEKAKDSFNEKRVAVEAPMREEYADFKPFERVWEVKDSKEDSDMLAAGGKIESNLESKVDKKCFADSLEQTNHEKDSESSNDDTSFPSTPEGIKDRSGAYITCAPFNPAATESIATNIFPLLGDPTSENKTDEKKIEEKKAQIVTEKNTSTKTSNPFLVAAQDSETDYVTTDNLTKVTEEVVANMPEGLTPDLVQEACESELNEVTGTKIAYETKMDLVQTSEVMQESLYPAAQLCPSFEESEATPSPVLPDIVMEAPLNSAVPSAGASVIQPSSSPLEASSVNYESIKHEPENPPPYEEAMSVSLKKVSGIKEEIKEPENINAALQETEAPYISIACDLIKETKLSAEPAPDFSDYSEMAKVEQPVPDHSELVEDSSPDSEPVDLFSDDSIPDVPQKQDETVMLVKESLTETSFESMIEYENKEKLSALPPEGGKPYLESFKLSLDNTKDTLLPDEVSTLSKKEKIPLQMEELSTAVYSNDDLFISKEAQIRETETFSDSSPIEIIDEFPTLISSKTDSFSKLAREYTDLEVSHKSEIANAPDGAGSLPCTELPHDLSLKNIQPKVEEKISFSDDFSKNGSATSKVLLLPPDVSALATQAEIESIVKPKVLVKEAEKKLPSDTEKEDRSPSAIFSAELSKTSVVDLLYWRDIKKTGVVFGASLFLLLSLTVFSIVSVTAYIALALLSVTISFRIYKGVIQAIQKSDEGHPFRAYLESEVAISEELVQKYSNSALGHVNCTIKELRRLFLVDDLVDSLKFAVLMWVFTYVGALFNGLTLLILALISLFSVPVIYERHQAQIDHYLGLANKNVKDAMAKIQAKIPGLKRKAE
UniProt A6ZKI3: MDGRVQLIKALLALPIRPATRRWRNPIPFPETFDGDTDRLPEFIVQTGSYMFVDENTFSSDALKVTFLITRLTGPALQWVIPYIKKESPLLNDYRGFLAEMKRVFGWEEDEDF
UniProt Q7L3V2: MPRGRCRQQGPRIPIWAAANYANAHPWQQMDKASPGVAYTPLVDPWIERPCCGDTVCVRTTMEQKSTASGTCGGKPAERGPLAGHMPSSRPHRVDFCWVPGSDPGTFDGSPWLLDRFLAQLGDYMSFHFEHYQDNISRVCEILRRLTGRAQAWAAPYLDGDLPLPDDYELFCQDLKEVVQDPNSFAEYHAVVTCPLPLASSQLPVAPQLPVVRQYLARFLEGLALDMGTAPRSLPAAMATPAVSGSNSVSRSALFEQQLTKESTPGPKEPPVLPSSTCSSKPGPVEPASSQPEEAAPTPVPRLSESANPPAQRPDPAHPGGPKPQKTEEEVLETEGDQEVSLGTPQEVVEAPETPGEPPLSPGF
UniProt Q8IZE3: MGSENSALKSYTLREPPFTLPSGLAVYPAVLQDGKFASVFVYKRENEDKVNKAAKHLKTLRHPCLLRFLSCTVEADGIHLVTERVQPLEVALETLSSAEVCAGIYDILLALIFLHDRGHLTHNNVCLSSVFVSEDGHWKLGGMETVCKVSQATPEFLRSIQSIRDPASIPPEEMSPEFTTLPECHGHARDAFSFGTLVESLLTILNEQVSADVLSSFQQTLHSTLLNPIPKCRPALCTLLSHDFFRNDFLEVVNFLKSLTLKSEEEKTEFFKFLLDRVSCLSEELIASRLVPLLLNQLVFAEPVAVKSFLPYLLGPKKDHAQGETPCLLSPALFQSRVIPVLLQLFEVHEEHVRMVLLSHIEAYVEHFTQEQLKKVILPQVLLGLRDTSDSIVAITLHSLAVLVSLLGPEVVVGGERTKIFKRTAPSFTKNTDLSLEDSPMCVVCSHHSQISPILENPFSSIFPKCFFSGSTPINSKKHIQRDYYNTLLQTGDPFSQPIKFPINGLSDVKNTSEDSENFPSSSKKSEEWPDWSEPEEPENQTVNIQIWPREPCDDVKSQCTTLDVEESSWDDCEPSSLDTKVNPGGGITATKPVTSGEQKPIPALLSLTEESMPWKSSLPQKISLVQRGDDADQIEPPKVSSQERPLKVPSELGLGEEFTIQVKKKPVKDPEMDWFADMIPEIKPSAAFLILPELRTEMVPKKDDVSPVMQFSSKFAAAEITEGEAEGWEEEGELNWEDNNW
UniProt P60903, whole entry, looked up: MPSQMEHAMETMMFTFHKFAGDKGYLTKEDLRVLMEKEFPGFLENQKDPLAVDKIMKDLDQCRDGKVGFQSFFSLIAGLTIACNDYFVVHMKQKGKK
UniProt Q9UPW6: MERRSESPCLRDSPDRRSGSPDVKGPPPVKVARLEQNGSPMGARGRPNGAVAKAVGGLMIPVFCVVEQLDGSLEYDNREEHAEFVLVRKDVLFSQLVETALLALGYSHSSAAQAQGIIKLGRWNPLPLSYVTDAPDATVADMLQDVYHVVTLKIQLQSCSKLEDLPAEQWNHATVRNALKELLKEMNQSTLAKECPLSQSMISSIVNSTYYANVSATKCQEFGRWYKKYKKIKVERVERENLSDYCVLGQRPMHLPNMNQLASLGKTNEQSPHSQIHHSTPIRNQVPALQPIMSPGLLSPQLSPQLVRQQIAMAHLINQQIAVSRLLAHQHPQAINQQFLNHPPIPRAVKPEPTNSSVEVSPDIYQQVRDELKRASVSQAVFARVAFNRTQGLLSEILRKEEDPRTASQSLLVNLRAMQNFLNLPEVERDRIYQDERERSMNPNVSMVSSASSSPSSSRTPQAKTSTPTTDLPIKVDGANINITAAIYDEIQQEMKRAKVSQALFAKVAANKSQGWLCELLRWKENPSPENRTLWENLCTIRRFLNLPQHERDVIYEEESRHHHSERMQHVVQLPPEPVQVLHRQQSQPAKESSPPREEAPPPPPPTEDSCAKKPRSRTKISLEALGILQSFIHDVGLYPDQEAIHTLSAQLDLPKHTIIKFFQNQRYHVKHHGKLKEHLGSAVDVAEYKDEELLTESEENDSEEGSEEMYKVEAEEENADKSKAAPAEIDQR
UniProt Q96FQ6: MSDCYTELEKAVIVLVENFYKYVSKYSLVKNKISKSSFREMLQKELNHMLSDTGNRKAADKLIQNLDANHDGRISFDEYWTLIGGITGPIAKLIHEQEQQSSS
UniProt P29034: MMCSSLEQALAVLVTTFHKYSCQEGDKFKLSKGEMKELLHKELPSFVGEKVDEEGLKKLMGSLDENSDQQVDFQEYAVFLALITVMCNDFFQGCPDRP
UniProt P26447: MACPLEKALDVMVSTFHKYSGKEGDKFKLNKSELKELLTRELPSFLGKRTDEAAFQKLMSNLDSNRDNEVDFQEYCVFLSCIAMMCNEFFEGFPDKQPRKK
UniProt O75556: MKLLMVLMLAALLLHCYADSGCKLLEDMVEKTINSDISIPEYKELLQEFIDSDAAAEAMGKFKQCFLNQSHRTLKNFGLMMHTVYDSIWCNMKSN
UniProt Q9HCY8: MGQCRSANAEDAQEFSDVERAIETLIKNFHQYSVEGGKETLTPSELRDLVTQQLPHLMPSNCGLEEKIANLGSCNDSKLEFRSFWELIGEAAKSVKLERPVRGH
UniProt Q6UWP8: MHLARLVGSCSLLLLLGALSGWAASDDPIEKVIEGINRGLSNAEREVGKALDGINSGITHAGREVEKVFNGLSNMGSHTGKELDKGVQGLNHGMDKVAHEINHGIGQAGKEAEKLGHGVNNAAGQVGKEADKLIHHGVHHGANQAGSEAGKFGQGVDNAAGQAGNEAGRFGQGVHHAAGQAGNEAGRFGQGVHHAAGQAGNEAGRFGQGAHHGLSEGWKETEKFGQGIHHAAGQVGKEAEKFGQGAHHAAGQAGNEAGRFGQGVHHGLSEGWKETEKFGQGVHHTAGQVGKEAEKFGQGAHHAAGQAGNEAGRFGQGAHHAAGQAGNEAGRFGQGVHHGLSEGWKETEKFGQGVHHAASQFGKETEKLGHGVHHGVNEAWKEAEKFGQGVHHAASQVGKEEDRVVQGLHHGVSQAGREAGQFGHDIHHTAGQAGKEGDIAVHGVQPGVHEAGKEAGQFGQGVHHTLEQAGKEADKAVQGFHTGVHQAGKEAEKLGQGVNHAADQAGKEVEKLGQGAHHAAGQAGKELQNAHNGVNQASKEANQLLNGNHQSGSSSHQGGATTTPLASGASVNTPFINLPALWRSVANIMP
UniProt O14828: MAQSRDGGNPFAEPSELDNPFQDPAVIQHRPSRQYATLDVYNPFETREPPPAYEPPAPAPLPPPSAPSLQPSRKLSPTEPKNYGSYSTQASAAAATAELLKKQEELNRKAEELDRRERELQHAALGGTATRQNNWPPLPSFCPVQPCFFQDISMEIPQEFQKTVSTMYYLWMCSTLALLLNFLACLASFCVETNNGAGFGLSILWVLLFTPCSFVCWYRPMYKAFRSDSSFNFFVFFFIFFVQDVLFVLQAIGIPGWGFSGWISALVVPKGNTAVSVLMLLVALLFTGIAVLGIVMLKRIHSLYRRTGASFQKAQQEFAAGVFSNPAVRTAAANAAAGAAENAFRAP

Experimental findings from the supplement of paper PMC10849652 are described below.

Compound in one experiment: Cc1cccc(CC(=O)N2CCc3c2ccc(-c2cn(C)c4ncnc(N)c24)c3F)n1
Nature of the experiment: log2 fold change, soluble protein after heating vs DMSO (PISA); higher = thermal stabilisation; K562 cells, 10 uM, 30 min; active = over 0.2 and 3.5 SD of the protein, either way, in both replicates (recomputed). Put shortly:
(§1)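 Thermal stability values are relative to control samples and come from duplicates. They are expressed as log2 fold changes. For measurement, K562 cells (2×10^6 cells/mL) received 10 μM compound for 30 min, and aliquots were heated for 3 min over 48°C-58°C, pooled, and extracted at 4°C in PBS with 0.5% NP-40. Soluble protein, the supernatant after 21,000xg for 90 min, was quantified by TMTpro 16plex LC-MS/MS with equalised channel sums.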
Regarding SAP130 isoform 3 (UniProt Q9H0E3), the log2 fold change is inactive: -0.12. The same measure, in the same setting: with SBF2 (UniProt Q86WG5) the figure was inactive: -0.024; with RXRG (UniProt P48443), inactive: 0.179. In the case of SEC22A (UniProt Q96IW7), the log2 fold change is inactive: -0.041. The same measure, in the same setting: the value for SDF2 (UniProt Q99470) was inactive: -0.025; that for SDCBP isoform 2 (UniProt O00560) was inactive: -0.066; that for RTN4 isoform 5 (UniProt Q9NQC3) was inactive: -0.014.

Turning to RTL8C (UniProt A6ZKI3), the log2 fold change is inactive: 0.125. RTL10 (UniProt Q7L3V2): the log2 fold change is inactive: -0.003. In the case of SCRIB isoform 3 (UniProt Q14160), the log2 fold change was inactive: -0.009. With SCYL3 isoform 2 (UniProt Q8IZE3), the log2 fold change is inactive: -0.017. On the same count and under the same terms, the value for S100A10 (UniProt P60903) was inactive: -0.035; that for SDHB, A0A087WXX8 was inactive: -0.13.

In the case of SATB2 (UniProt Q9UPW6), the log2 fold change is inactive: 0.05.

Compound in the next experiment: Cc1cn(-c2cc(NC(=O)c3ccc(C)c(Nc4nccc(-c5cccnc5)n4)c3)cc(C(F)(F)F)c2)cn1 [nilotinib]
The experiment is described as above. Put shortly:
as §1
Regarding S100A16 (UniProt Q96FQ6), the log2 fold change is inactive: -0.034. Consider S100A2 (UniProt P29034), for which the log2 fold change is inactive: -0.16. Same read-out and setting: with SAFB2 (UniProt K7EQU4) the figure was inactive: 0.155. The same measure, in the same setting: with S100A4 (UniProt P26447) the figure was inactive: 0.08; with RSL24D1 (UniProt Q9UHA3), inactive: -0.029; with SDCBP isoform 2 (UniProt O00560), inactive: 0.108. With SCGB2A1 (UniProt O75556), the log2 fold change is inactive: -0.106. Consider RTN4 isoform 5 (UniProt Q9NQC3), for which the log2 fold change was inactive: 0.227. Still for that read-out and setting: the value for S100A14 (UniProt Q9HCY8) was inactive: -0.02; that for SBSN (UniProt Q6UWP8) was inactive: 0.031. Take RXYLT1 (UniProt Q9Y2B1): the log2 fold change is inactive: 0.102.

Consider SCYL3 isoform 2 (UniProt Q8IZE3), for which the log2 fold change is inactive: -0.215. As for S100A10 (UniProt P60903), the log2 fold change was inactive: 0.072. With SDHB, A0A087WXX8, the log2 fold change was inactive: -0.107.

With SCAMP3 isoform 2 (UniProt O14828), the log2 fold change was inactive: 0.048.

Compound in the next experiment: Cc1nc(Nc2n[nH]c3c2CN(C(=O)N[C@H](CN(C)C)c2ccccc2)C3(C)C)c2sccc2n1
The experiment is described as above. In short, it runs like this: as §1
S100A16 (UniProt Q96FQ6): the log2 fold change is inactive: -0.148.

As for S100A2 (UniProt P29034), the log2 fold change is inactive: 0.249. On to SAFB2 (UniProt K7EQU4), for which the log2 fold change was inactive: 0.162. Turning to S100A4 (UniProt P26447), the log2 fold change is inactive: -0.023.

With RSL24D1 (UniProt Q9UHA3), the log2 fold change was inactive: 0.046. On to SDCBP isoform 2 (UniProt O00560), for which the log2 fold change was inactive: -0.219.

As for SCGB2A1 (UniProt O75556), the log2 fold change was inactive: 0.019. Take RTN4 isoform 5 (UniProt Q9NQC3): the log2 fold change was inactive: 0.089.

As to S100A14 (UniProt Q9HCY8), the log2 fold change was inactive: 0.113. As for SBSN (UniProt Q6UWP8), the log2 fold change was inactive: -0.018. As to RXYLT1 (UniProt Q9Y2B1), the log2 fold change is inactive: -0.1. Turning to SCYL3 isoform 2 (UniProt Q8IZE3), the log2 fold change was inactive: -0.167. For S100A10 (UniProt P60903), the log2 fold change was inactive: -0.057. Consider SDHB, A0A087WXX8, for which the log2 fold change is inactive: 0.071. Turning to SCAMP3 isoform 2 (UniProt O14828), the log2 fold change was inactive: 0.027.
